According to patent CN113939539A:
No constants are given. Whether binding was seen depends on the method and setting. Some binding calls cover weakened binding; strength is not graded here.

Target: 猴CSF-1R-his蛋白 (Acro biosystems, Cat#CSR-C52E1) (monkey (cynomolgus))
Assay: SPR (Biacore), antibody captured by anti-human IgG on CM5, monkey CSF-1R-his in solution

binding: binds
B1: 卡比利珠单抗 (antibody, human IgG4 S228P, kappa, V domains shown)
VH: QVQLVQSGAEVKKPGSSVKVSCKASGYTFTDNYMIWVRQAPGQGLEWMGDINPYNGGTTFNQKFKGRVTITADKSTSTAYMELSSLRSEDTAVYYCARESPYFSNLYVMDYWGQGTLVTVSS
VL: NIVLTQSPATLSLSPGERATLSCKASQSVDYDGDNYMNWYQQKPGQAPRLLIYAASNLESGIPARFSGSGSGTDFTLTISSLEPEDFAVYYCHLSNEDLSTFGGGTKVEIKR
